Source: PubChem BioAssay AID1487 (National Center for Advancing Translational Sciences (NCATS), 2009)
Hit rate of the full screen: of about 200,000 compounds, about 25 (0.01%) were called active. The shares of active, inactive and inconclusive entries below differ from those in the screen. Calls come from the whole dose curve; as a rule, active = well fitted inhibition curve with a large enough effect in the signal ratio, with a control signal flat (not every such curve was filed as active); inconclusive = small, poorly fitted or top-dose-only effect, or effect the other way, or a change in a side signal; inactive = flat fitted curve, though single readings scatter; the % refers to the signal ratio. A potency beside an inconclusive call is a rough fit, not a confirmed value.

test: qHTS Assay for Modulators of Lamin A Splicing; settings: HeLa LMNA splicing GFP/RFP minigene ratio, 48 h; ratio change, negative = inhibition: at 46.1 µM (top of the series) unless noted
Summary of the method: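 S3 HeLa stable clones carrying a lamin A-EGFP splicing minigene plus DsRed2 were seeded at 600 cells/well in Opti-MEM with 2% FBS, pin-dosed and incubated 48 h at 37°C. Acumen cytometry (488 nm) gave the GFP/RFP total-intensity ratio.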
% is set by controls: 0 for no effect and ±100 for the full control effect; potency is the fitted concentration of half-maximal effect.

Compound | ratio change, negative = inhibition | Potency
Cc1ccc(NC(=O)Cn2c(=O)oc3ccccc32)cc1 | inconclusive: 31.6% [at 46 µM] | 
COCCNC(=S)Nc1cccc2cnccc12 | inactive: 18.8% [at 46 µM] | 
CCCNC(=O)N1CCCN(S(=O)(=O)c2ccc3c(ccn3CC)c2)CC1 | inactive: 8.6% [at 46 µM] | 
CC(/C=C/c1ccccc1)=N\NC(N)=S | inconclusive: -0.544% | 
Cc1ccc(C2=CSC3=NCCN23)c(C)c1 | inconclusive: 1.67% | 
Cc1cccc(NC(=S)NC(NC(=O)c2ccco2)C(Cl)(Cl)Cl)c1 (stereo not drawn) | inactive: -21.5% | 
Cc1ccc(NC(=S)N/N=C/c2c(C)nn(-c3ccccc3)c2N2CCCC2)cc1 | inactive: -10.6% | 
CCCn1c(=S)[nH]c2cc(OC)c(OC)cc2c1=O | inconclusive: 2.33% | 
CN1CC(=O)Nc2cc(C(=O)O)ccc21 | inconclusive: -3.39% [at 46 µM] | 
Cc1ccc(-n2cc(C(=O)OCc3ccc(F)c(F)c3)c3ccccc3c2=O)cc1 | inactive: 6.68% [at 46 µM] | 
O=C(CSc1nc2ncccc2[nH]1)c1ccc(F)cc1 | inactive: -1.55% | 
CCOc1ccc(NC(=O)CN2CCN(CC(=O)Nc3ccc(F)cc3F)CC2)cc1 | inactive: 12.8% [at 46 µM] | 
COc1ccccc1NC(=O)c1ccccc1NC(=O)c1cc(Cl)ccc1NC(=O)c1ccco1 | inconclusive: -3.43% | 
CCc1ccc(C(=O)COC(=O)C(CCSC)NC(=O)C23CC4CC(CC(C4)C2)C3)cc1 (stereo not drawn) | inactive: -4.64% | 
COc1ccc(CC(=O)Nc2ccc(N3CCOCC3)cc2)cc1OC | inconclusive: -12.5% [at 46 µM] | 
Cc1ccc(NC(=O)c2ccc(NCC3CCCO3)c([N+](=O)[O-])c2)cc1Cl (stereo not drawn) | inconclusive: 46.2% [at 46 µM] | 
COc1ccc(-c2csc(Nc3ccccc3)[n+]2Cc2ccccc2)cc1 | inactive: -25.4% [at 46 µM] | 
Cc1ccc(C2(C)NC(=O)N(CC(=O)NCc3cccs3)C2=O)cc1 (stereo not drawn) | inconclusive: 6.16% | 
COc1ccc(CNc2nc(-c3ccoc3)nc3ccccc23)c(OC)c1 | inconclusive: -8.5% | 
OC(COc1ccc2c(c1)OCO2)CN1CCN(c2ccc(F)cc2)CC1 (stereo not drawn) | inconclusive: -3.92% [at 46 µM] | 
Cc1ccc(CNC(=O)c2nn(C)c3c2CSc2ccc(C)cc2-3)cc1 | inactive: -13.3% [at 46 µM] | 
Cc1ccc2nc(C)c3c(c2c1)OC(C(C)(Cl)Br)C3 (stereo not drawn) | inconclusive: -13.8% [at 46 µM] | 

Compound | ratio change, negative = inhibition | Potency
O=[N+]([O-])c1c(NCCCO)cc(N2CCN(Cc3ccc4c(c3)OCO4)CC2)c2nonc12 |  | inconclusive: 35.5 µM [fluorescent, single point]
CCn1cc(C(=O)Nc2ccc(C)cc2C)c(=O)c2ccc(C)nc21 | inconclusive: 24.6% [at 46 µM] | 
Cc1ccc(C(=O)NCc2ccccc2)cc1Br | inactive: -4.94% | 
N#C/C(=C\Nc1ccc(F)c(Cl)c1)S(=O)(=O)c1ccccn1 | inconclusive: 25.7% [at 46 µM] | 
O=C(NC(=S)Nc1c(Cl)ccc2nsnc12)c1ccco1 | inconclusive: 8.13% | 
COc1cc2c(cc1OC)CN(c1nc(CN3CCOCC3)nc3sc4c(c13)CCCC4)CC2 | inconclusive: -8.33% | 
NNC(=O)COc1ccccc1[N+](=O)[O-] | inconclusive: 6.1% [at 46 µM] | 
CN(C)c1nc(N(C)C)nc(N(C)C)n1 | inconclusive: -5.23% | 
Cc1ccccc1C(=O)NNC(=O)/C=C/c1ccccc1 | inactive: -12.1% [at 46 µM] | 
O=C(O)c1ccc2c3c(ncnc13)-c1ccccc1C2=O | inconclusive: -14.4% | 
CCC(=O)Nc1cccc(NC(C)=O)c1 | inactive: 4.58% | 
O=P(O)(O)OC[C@H](O)CO | inconclusive: -28.3% | 
COc1cc(C2c3cc4c(cc3C(O[C@@H]3OC5COC(c6cccs6)OC5C(O)C3O)C3COC(=O)C23)OCO4)cc(OC)c1O (stereo partly drawn) | inconclusive: 170% | 
CCN1CCN(S(=O)(=O)c2cc(OC)ccc2OC)CC1 | inactive: 1.82% | 
Oc1ccccc1C1CC(c2cccs2)=NC(c2cccc(Br)c2)N1 (stereo not drawn) | inconclusive: -38.2% [at 46 µM] | 
COc1ccc(OCCNS(=O)(=O)c2ccc3oc4ccccc4c3c2)cc1 | inactive: 4.51% | 
O=C(COC(=O)c1n[nH]c2ccccc12)c1cc(F)ccc1F | inconclusive: 21.5% [at 46 µM] | 
CCCOc1ccc(C2C(=O)N(C3CCCCCC3)CC(=O)N2CCC)cc1OC (stereo not drawn) | inactive: 2.03% [at 46 µM] | 
CCCN1C(=O)C2(SC(NC(C)=O)=NN2C(C)=O)c2cc(C)ccc21 (stereo not drawn) | inconclusive: -1.93% [at 46 µM] | 
Cc1ccc(C(=O)NCCSc2c(C)[nH]c3ccccc23)cc1[N+](=O)[O-] | inconclusive: -49.4% | 
CCN(CC)c1nc(N)c2c(N)nc3c(c2c1C#N)CC(c1ccccc1)O3 (stereo not drawn) | inconclusive: 45.2% | 

An excerpt from above in order of number of heavy atoms, low to high:
Compound | ratio change, negative = inhibition | Potency
Cc1ccc(C(=O)NCc2ccccc2)cc1Br | inactive: -4.94% | 
Cc1ccccc1C(=O)NNC(=O)/C=C/c1ccccc1 | inactive: -12.1% [at 46 µM] | 
N#C/C(=C\Nc1ccc(F)c(Cl)c1)S(=O)(=O)c1ccccn1 | inconclusive: 25.7% [at 46 µM] | 
